# PubChem BioAssay AID1508597 | Cure First | 2020
# Assay: 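Survival screen with siRNA in ovarian cancer cells derived from patients, with or without rucaparib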 (primary screen)
# System: human ovarian carcinoma lines grown from tumours: OCI-P5x (papillary serous) and OCI-C5x (clear cell)
# Knock-down reagent: siRNA pool against human genes, 1.25 pmol siRNA per well
# Time to read-out: 72 h or 96 h, depending on the cell culture
# Challenge: rucaparib 20 µM (about IC30) or vehicle, present until read-out
# Rucaparib or vehicle: Rucaparib
# Cell line: OCI-P5x (serous)
# Read-out: 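Luminescent ATP-based viability assay read 72 or 96 h after transfection, depending on culture, given as normalised percent viability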
# Direction: viability, normalised: higher = more viable cells remaining
# Call rule: 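a well counts as a hit if its normalised viability is under 80 percent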
# Calls: active = viability under 80%; inactive = viability 80% or more
# Shown is a random part of the about 2,100 reagents, under one of the conditions tested. 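Calls flag viability under 80% in either arm, not effects specific to rucaparib; the reference for percent is not stated.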 A number with no mark means an inactive call. Some reagents were tested in more than one well and are listed for each. Not given: the 100% reference.
gene knocked down,technical replicate,"viability, normalised (%)"
DDX56 (DEAD-box helicase 56),1,56.4 (active)
DDX56 (DEAD-box helicase 56),2,62.7 (active)
DDX56 (DEAD-box helicase 56),3,69.7 (active)
TNP1 (transition protein 1),1,57.5 (active)
TNP1 (transition protein 1),2,58.6 (active)
TNP1 (transition protein 1),3,49.4 (active)
IRAK1 (interleukin 1 receptor associated kinase 1),1,53 (active)
IRAK1 (interleukin 1 receptor associated kinase 1),2,59.7 (active)
IRAK1 (interleukin 1 receptor associated kinase 1),3,74.4 (active)
"DICER1 (dicer 1, ribonuclease III)",1,68.8 (active)
"DICER1 (dicer 1, ribonuclease III)",2,75.8 (active)
"DICER1 (dicer 1, ribonuclease III)",3,86.3
STK35 (serine/threonine kinase 35),1,82.9
STK35 (serine/threonine kinase 35),2,73.9 (active)
STK35 (serine/threonine kinase 35),3,74.9 (active)
CUBN (cubilin),1,67 (active)
CUBN (cubilin),2,65.9 (active)
CUBN (cubilin),3,59.9 (active)
CHMP4B (charged multivesicular body protein 4B),1,71 (active)
CHMP4B (charged multivesicular body protein 4B),2,83.1
CHMP4B (charged multivesicular body protein 4B),3,61.4 (active)
EPHA10 (EPH receptor A10),1,103
EPHA10 (EPH receptor A10),2,87.4
EPHA10 (EPH receptor A10),3,79.9 (active)
WWC2 (WW and C2 domain containing 2),1,58.8 (active)
WWC2 (WW and C2 domain containing 2),2,50.5 (active)
WWC2 (WW and C2 domain containing 2),3,62.1 (active)

Targets above whose gene name starts with C or c:
gene knocked down,technical replicate,"viability, normalised (%)"
CUBN (cubilin),1,67 (active)
CUBN (cubilin),2,65.9 (active)
CUBN (cubilin),3,59.9 (active)
CHMP4B (charged multivesicular body protein 4B),1,71 (active)
CHMP4B (charged multivesicular body protein 4B),2,83.1
CHMP4B (charged multivesicular body protein 4B),3,61.4 (active)

Continued.
gene knocked down,technical replicate,"viability, normalised (%)"
TEC (transient erythroblastopenia of childhood),1,106
TEC (transient erythroblastopenia of childhood),2,106
TEC (transient erythroblastopenia of childhood),3,105
IKZF1 (IKAROS family zinc finger 1),1,70.3 (active)
IKZF1 (IKAROS family zinc finger 1),2,61 (active)
IKZF1 (IKAROS family zinc finger 1),3,68.7 (active)
PIP5K1A (phosphatidylinositol-4-phosphate 5-kinase type 1 alpha),1,102
PIP5K1A (phosphatidylinositol-4-phosphate 5-kinase type 1 alpha),2,79.1 (active)
PIP5K1A (phosphatidylinositol-4-phosphate 5-kinase type 1 alpha),3,83.5
MED25 (mediator complex subunit 25),1,54.3 (active)
MED25 (mediator complex subunit 25),2,68.7 (active)
MED25 (mediator complex subunit 25),3,70 (active)
GRK3 (G protein-coupled receptor kinase 3),1,82.3
GRK3 (G protein-coupled receptor kinase 3),1,86.4
GRK3 (G protein-coupled receptor kinase 3),2,76.1 (active)
GRK3 (G protein-coupled receptor kinase 3),2,111
GRK3 (G protein-coupled receptor kinase 3),3,92.2
GRK3 (G protein-coupled receptor kinase 3),3,91.7
DAPK2 (death associated protein kinase 2),1,80.2
DAPK2 (death associated protein kinase 2),2,70.8 (active)
DAPK2 (death associated protein kinase 2),3,63.2 (active)
"PFKP (phosphofructokinase, platelet)",1,120
"PFKP (phosphofructokinase, platelet)",2,129
"PFKP (phosphofructokinase, platelet)",3,121
STYK1 (STY kinase 1),1,82.9
STYK1 (STY kinase 1),2,74.4 (active)
STYK1 (STY kinase 1),3,44.7 (active)
SLC6A3,1,46.7 (active)
SLC6A3,2,59.2 (active)
SLC6A3,3,50.8 (active)
